According to the supplement of paper PMC8166895:
Structures can show the parent of a compound that is named as a salt. This is one part of the list. Most entries show no effect beyond the scatter of the controls.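 A single-replicate pilot screen of approved drugs and clinical or known-target compounds measured melting temperature via differential scanning fluorimetry. Top stabilizing hits raised the melting point by 2 °C or more; negative shifts indicate destabilization.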

Test system: SARS-CoV-2 main protease (Mpro, nsp5)
Assay: thermal shift ΔTm of Mpro relative to plate average Tm; higher = stronger thermal stabilization of Mpro (binding)
Settings: 10 µM; protein concentration 1 µM

Compound | thermal shift ΔTm of Mpro [°C]
Clc1ccc(C(OCCN2CCCCC2)c2ccccc2)cc1 (centres undefined) [Cloperastine hydrochloride] | 0.0315
CN1C/C=C/CCOc2cccc(c2)-c2ccnc(n2)Nc2cccc(c2)C1 [SB1317 hydrochloride] | -0.157
NC(=O)N[C@@H](CCC(=O)O)C(=O)O [Carbaglu] | 0.0918
C(=N\NC1=NCCN1)/c1c2ccccc2c(/C=N/NC2=NCCN2)c2ccccc12 [Bisantrene] | -0.0984
COCCCC/C(=N\OCCN)c1ccc(C(F)(F)F)cc1 [Fluvoxamine maleate] | 0.353
COC(=O)[C@H](c1ccccc1Cl)N1CCc2sccc2C1 [Clopidogrel] | 0.145
COC(=O)[C@H](c1ccccc1Cl)N1CCc2sccc2C1 (racemic) [(±) Clopidogrel hydrogen sulfate] | -0.13
C[C@H](N[C@@H](CCc1ccccc1)C(=O)O)C(=O)N1CCC[C@H]1C(=O)O [Enalaprilat Dihydrate] | 0.0637
CCN(CC)CCNC(=O)c1ccc(NS(C)(=O)=O)cc1 [Sematilide HCl] | 0.0513
NC(=O)N1CCC(CC(=O)N2CCC([C@H]3c4ncc(Br)cc4CCc4cc(Cl)cc(Br)c43)CC2)CC1 [Lonafarnib] | -0.666
O=C(Nc1cccnn1)N1CCC(=Cc2cccc(Oc3ccc(C(F)(F)F)cn3)c2)CC1 | -0.32
O=C(Nc1cc(C(F)(F)F)cc(C(F)(F)F)c1)c1cc(Cl)ccc1O | 1.11
NC1(c2ccc(-c3nc4ccn5c(=O)[nH]nc5c4cc3-c3ccccc3)cc2)CCC1 | -0.0669
NC(=O)c1noc([C@H](CCCC2CCCCC2)CC(=O)NO)n1 | -0.192
CN1CCN(CCCNc2ncc(Cl)c(-c3cc4c(C(=O)NC5CC5)cccc4s3)n2)CC1 | -0.171
Cc1cccc(-c2[nH]c(C(C)(C)C)nc2-c2ccc3nccnc3c2)n1 | 0.309
CC[C@H](C)n1cc(C)c2c(C(=O)NCc3c(C)cc(C)[nH]c3=O)cc(-c3ccc(N4CCNCC4)nc3)cc21 | -0.21
C/C=C(\C)C(=O)N[C@@H](c1ccccc1)[C@@H](O)C(=O)O[C@H]1C[C@@]2(O)[C@@H](OC(=O)c3ccccc3)[C@@H]3[C@]4(OC(C)=O)CO[C@@H]4C[C@H](O)[C@@]3(C)C(=O)[C@H](OC(C)=O)C(=C1C)C2(C)C [Cephalomannine] | -0.093
CC[C@@]1(O)C(=O)OCc2c1cc1n(c2=O)Cc2cc3cc(O)ccc3nc2-1 [(S)-10-Hydroxycamptothecin] | -0.00492
NS(=O)(=O)c1cc2c(cc1Cl)N=C(CSCc1ccccc1)NS2(=O)=O [Benzthiazide] | -0.0618
CCC(COC(=O)c1cc(OC)c(OC)c(OC)c1)(c1ccccc1)N(C)C (centres undefined) [Trimebutine] | 0.11
CCC(COC(=O)c1cc(OC)c(OC)c(OC)c1)(c1ccccc1)N(C)C (centres undefined) [Trimebutine maleate] | -0.243
CCn1c(=O)c(-c2ccc(-c3cncs3)cc2Cl)cc2cnc(Nc3ccc(N4CCN(C)CC4)cc3)nc21 | 0.187
O=C1C(CC[S+]([O-])c2ccccc2)C(=O)N(c2ccccc2)N1c1ccccc1 (centres undefined) [Sulfinpyrazone] | 0.165
O=C1NC(=O)/C(=C/c2ccc(-c3ccc(F)cc3O)o2)S1 | 0.642

Individual results from the list:
thermal shift ΔTm of Mpro [°C] with CN1CCN(CCCNc2ncc(Cl)c(-c3cc4c(C(=O)NC5CC5)cccc4s3)n2)CC1 reads -0.171
thermal shift ΔTm of Mpro [°C] with O=C(Nc1cc(C(F)(F)F)cc(C(F)(F)F)c1)c1cc(Cl)ccc1O reads 1.11

The list goes on.

Compound | thermal shift ΔTm of Mpro [°C]
CC(C)CCN1c2nc(Nc3cc(F)c(O)c(F)c3)ncc2N(C)C(=O)C1C (centres undefined) | -0.205
Cc1cnc(Nc2ccc(N3CCN(C)CC3)cc2)nc1Nc1cccc(S(=O)(=O)NC(C)(C)C)c1 | -0.234
OC[C@@H](O)[C@@H](O)CO [Erythritol] | -0.0458
CC(=O)Oc1cc(C(F)(F)F)ccc1C(=O)O [Triflusal] | -0.0648
CC(=O)Oc1c(C)cccc1C(=O)O [2-(Acetyloxy)-3-Methylbenzoic Acid] | 0.178
CNC(=O)c1ccc2cc([C@@]3(O)CCn4cncc43)ccc2c1 [TAK-700 (Orteronel)] | 0.165
N=c1ccn2c(n1)O[C@H]1[C@H](O)[C@@H](CO)O[C@H]12 [Cyclocytidine HCl] | 0.181
O=c1[nH]cc(F)c(=O)[nH]1 [Fluorouracil (5-Fluoracil, 5-FU)] | 0.148
CCOc1cc(NC(C)=O)ccc1C(=O)OC [Ethopabate] | -0.089
C[C@]12C=CC(=O)C=C1CC[C@@H]1[C@@H]2[C@@H](O)C[C@@]2(C)[C@H]1CC[C@]2(O)C(=O)CO [Prednisolone] | -0.0377
O=c1ncn2nc(Sc3ccc(F)cc3F)ccc2c1-c1c(Cl)cccc1Cl | 0.14
NCCc1c[nH]c2ccc(O)cc12 [Serotonin HCl] | -0.521
CNC(=O)c1ccccc1Oc1nc(Nc2cc(OC)c(OC)c(OC)c2)ncc1Br | -0.101
CC(C)Cc1ccc([C@H](C)C(=O)O)cc1 [Dexibuprofen] | 0.193
CS(=O)(=O)c1ccc([C@@H](O)[C@@H](CO)NC(=O)C(Cl)Cl)cc1 [Thiamphenicol] | 0.011
Cc1cncc(CN2CCC(=C3c4ccc(Cl)cc4CCc4cccnc43)CC2)c1 [Rupatadine Fumarate] | -0.175
O=C(Nc1cc(Cl)cc(Cl)c1O)c1c(O)c(Cl)cc(Cl)c1Cl [Oxyclozanide] | 0.314
C[C@@H]1CC[C@@]2(NC1)O[C@H]1C[C@H]3[C@@H]4CC=C5C[C@@H](O[C@@H]6O[C@H](CO)[C@@H](O[C@@H]7O[C@@H](C)[C@H](O)[C@@H](O)[C@H]7O)[C@H](O)[C@H]6O[C@@H]6O[C@@H](C)[C@H](O)[C@@H](O)[C@H]6O)CC[C@]5(C)[C@H]4CC[C@]3(C)[C@H]1[C@@H]2C [Solamargine] | -0.0416
Cc1c(NC(=O)c2ccc(C(C)(C)C)cc2)cccc1-c1cn(C)c(=O)c(Nc2ccc(C(=O)N3CCOCC3)cc2)n1 | -0.245
O=[N+]([O-])c1ccc([As](=O)(O)O)cc1 [Nitarsone] | 0.173
O=C(O)Cc1ccccc1Nc1c(Cl)cccc1Cl [Diclofenac Sodium] | 0.0239
O=C(O)Cc1ccccc1Nc1c(Cl)cccc1Cl [Diclofenac Potassium] | -0.0343
O=C(O)Cc1ccccc1Nc1c(Cl)cccc1Cl [Diclofenac Diethylamine] | 0.093
O=C(O)Cc1ccccc1Nc1c(Cl)cccc1Cl [Diclofenac] | -0.0153
